Data taken from patent US8017656B2, “Organic sulfur compounds and use thereof” (Sumitomo Chemical Company, Limited, priority 2005, dated 2011).
Some results were stated once for a whole list of compounds, not compound by compound. At least one compound was matched to its structure with a doubt left.

Tests used:
Type in all cases: in vivo
[1] = tested on: brown planthoppers (Nilaparvata lugens); test: Test Example 1: rice plant systemic (root absorption) test against brown planthopper larvae; conditions: 55.6 ppm test solution (Formulation Example 5), 45 ml absorbed from bottom of cup by rice plants; thirty first-instar larvae released 6 days later; counted on 6th day after release, 25° C.
Culex pipiens pallens = test: Test Example 4: mosquito larvae test in treated water; conditions: active ingredient concentration 3.5 ppm in water; twenty last-instar larvae; after one day
Method: 0.7 ml of above test solution was added to 100 ml of ion exchanged water (active ingredient concentration: 3.5 ppm). Twenty last-instar larvae of Culex pipiens pallens were set free in the solution. After one day, the number of surviving and dead Culex pipiens pallens was examined and the rate of dead pests was calculated.

Musca domestica = test: Test Example 2: filter paper/sucrose bait test against housefly imagoes; conditions: 500 ppm test solution, 0.7 ml on filter paper with 30 mg sucrose; ten female imagoes; after 24 hours
Method: On the bottom of a polyethylene cup having a diameter of 5.5 cm, a filter paper having the same diameter was laid, and 0.7 ml of the above test solution was added dropwise on the filter paper, followed by putting 30 mg of sucrose on it uniformly as a bait. Ten female Musca domestica imagoes were set free in the polyethylene cup and covered it with a lid. After 24 hours, the number of surviving and dead Musca domestica was examined and the rate of dead pests was calculated.

## COC(=O)C(C)(CCC(F)(F)C(F)(F)C(F)(F)F)S(=O)(=O)CCC(F)(F)C(F)(F)F (stereo not drawn) [(52)]
[1]
  number of parasitic insects on the 6th day after the treatment: ≤ 3

## COC(=O)C(CCC(F)(F)C(F)(F)C(F)(F)F)S(=O)(=O)CCC(F)(F)F (stereo not drawn) [(82)]
[1]
  number of parasitic insects on the 6th day after the treatment: ≤ 3

## NC(=O)C(CCC(F)(F)C(F)(F)C(F)(F)F)S(=O)(=O)CCC(F)(F)C(F)(F)F (stereo not drawn) [(55)]
[1]
  number of parasitic insects on the 6th day after the treatment: ≤ 3

## CC(CCC(F)(F)C(F)(F)C(F)(F)F)(C(N)=O)S(=O)(=O)CCC(F)(F)C(F)(F)F (stereo not drawn) [(56)]
[1]
  number of parasitic insects on the 6th day after the treatment: ≤ 3

## N#CC(CCC(F)(F)C(F)(F)C(F)(F)F)S(=O)(=O)CCC(F)(F)F (stereo not drawn) [(5)]
[1]
  number of parasitic insects on the 6th day after the treatment: ≤ 3

## N#CC(CCC(F)(F)C(F)(F)F)SCCC(F)(F)F (stereo not drawn) [(47)]
Culex pipiens pallens
  rate of dead pests: not less than 90%
Musca domestica
  rate of dead pests: ≥ 70%
[1]
  number of parasitic insects on the 6th day after the treatment: ≤ 3

## N#CC(CC(F)(F)C(F)(F)C(F)(F)F)S(=O)(=O)CCC(F)(F)C(F)(F)F (stereo not drawn) [(9)]
[1]
  number of parasitic insects on the 6th day after the treatment: ≤ 3

## COC(=O)C(Cl)(CCC(F)(F)C(F)(F)C(F)(F)F)S(=O)(=O)CCC(F)(F)C(F)(F)F (stereo not drawn) [(96)]
[1]
  number of parasitic insects on the 6th day after the treatment: ≤ 3

## NC(=O)C(F)(CCC(F)(F)C(F)(F)C(F)(F)F)S(=O)(=O)CCC(F)(F)F (stereo not drawn) [(91)]
[1]
  number of parasitic insects on the 6th day after the treatment: ≤ 3

## N#CC(CC(F)(F)C(F)(F)C(F)(F)F)S(=O)(=O)CCC(F)(F)F (stereo not drawn) [(4)]
[1]
  number of parasitic insects on the 6th day after the treatment: ≤ 3

## COC(=O)C(F)(CCC(F)(F)C(F)(F)C(F)(F)F)S(=O)(=O)CCC(F)(F)F (stereo not drawn) [(90)]
[1]
  number of parasitic insects on the 6th day after the treatment: ≤ 3

## NC(=O)C(F)(CCC(F)(F)C(F)(F)F)S(=O)(=O)CCC(F)(F)C(F)(F)C(F)(F)F (stereo not drawn) [(67)]
[1]
  number of parasitic insects on the 6th day after the treatment: ≤ 3

## CC(C#N)(CCC(F)(F)C(F)(F)F)S(=O)(=O)CCC(F)(F)C(F)(F)C(F)(F)F (stereo not drawn) [(14)]
[1]
  number of parasitic insects on the 6th day after the treatment: ≤ 3

## NC(=O)C(Cl)(CCC(F)(F)C(F)(F)C(F)(F)F)S(=O)(=O)CCC(F)(F)C(F)(F)F (stereo not drawn) [(97)]
[1]
  number of parasitic insects on the 6th day after the treatment: ≤ 3

## COC(=O)C(Cl)(CCC(F)(F)C(F)(F)C(F)(F)C(F)(F)F)S(=O)(=O)CCC(F)(F)F (stereo not drawn) [(86)]
[1]
  number of parasitic insects on the 6th day after the treatment: ≤ 3

## CC(C#N)(CC(F)(F)C(F)(F)C(F)(F)F)S(=O)(=O)CCC(F)(F)F (stereo not drawn) [(12)]
[1]
  number of parasitic insects on the 6th day after the treatment: ≤ 3

## NC(=O)C(Cl)(CCC(F)(F)C(F)(F)C(F)(F)C(F)(F)F)S(=O)(=O)CCC(F)(F)F (stereo not drawn) [(87)]
[1]
  number of parasitic insects on the 6th day after the treatment: ≤ 3

## NC(=O)C(Cl)(CCC(F)(F)C(F)(F)C(F)(F)F)S(=O)(=O)CCC(F)(F)F (stereo not drawn) [(84)]
[1]
  number of parasitic insects on the 6th day after the treatment: ≤ 3

## COC(=O)C(Cl)(CCC(F)(F)C(F)(F)C(F)(F)F)S(=O)(=O)CCC(F)(F)F (stereo not drawn) [(83)]
[1]
  number of parasitic insects on the 6th day after the treatment: ≤ 3
